According to the supplement of paper PMC10727501:
Counter-ions that a name gives are not always drawn. This is one part of the list. Single values are uncertain here, since repeats match poorly.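 Researchers measured free-swimming zebrafish larvae's O-bend response probability to dark flashes (naive: first five; training: remaining flashes of four 60-flash blocks; test: later 60-flash block) and OMR turning toward alternating leftward/rightward LED motion. Six treated larvae were compared to sixty 0.1% DMSO controls, with |SSMD|≥2 marking a hit.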

Assays:
Settings in all cases: 10 µM; pre-incubation: 30-90 min
[1] = tested on: Danio rerio larvae (5 dpf, TLF); assay: OMR-Perf (SSMD vs DMSO vehicle); higher = higher than vehicle (e.g. higher dark-flash O-bend response probability, or better optomotor performance)
[2] = tested on: Danio rerio larvae (5 dpf, TLF); assay: Prob-Test (SSMD vs DMSO vehicle); higher = higher than vehicle (e.g. higher dark-flash O-bend response probability, or better optomotor performance)
[3] = tested on: Danio rerio larvae (5 dpf, TLF); assay: Prob-Naive (SSMD vs DMSO vehicle); higher = higher than vehicle (e.g. higher dark-flash O-bend response probability, or better optomotor performance)
[4] = tested on: Danio rerio larvae (5 dpf, TLF); assay: Prob-Train (SSMD vs DMSO vehicle); higher = higher than vehicle (e.g. higher dark-flash O-bend response probability, or better optomotor performance)

SMILES | OMR-Perf [1] | Prob-Test [2] | Prob-Naive [3] | Prob-Train [4]
c1ccc2c(c1)sc1ccccc12 [Dibenzothiophene] | -0.721 | -0.266 | -1.67 | -1.21
CN(C)Cc1c[nH]c2ccccc12 [Gramine] | -0.105 | 0.138 | -0.0225 | 0.00647
CN1CCC(c2c[nH]c3ccc(O)cc23)CC1 | -0.629 | 0.0564 | 0.213 | -0.422
Br.CCN1C[C@]2(OC(=O)c3ccccc3NC(C)=O)CC[C@@H](OC)[C@]34C1[C@@H](C[C@H]23)[C@@]1(O)C[C@H](OC)[C@H]2C[C@H]4[C@]1(O)[C@H]2OC [Lappaconite HBr] | 0.12 | 0.287 | 0.208 | 0.185
C=C[C@H]1CN2CCC1C[C@H]2[C@H](O)c1ccnc2ccccc12 (stereo partly drawn) [Cinchonidine] | -0.278 | 0.11 | 0.285 | 0.514
C[C@@H]1[C@H](O)[C@@H](C)/C=C/C=C/CC/C=C/C=C/C=C/C=C/[C@H](O[C@H]2O[C@@H](C)[C@H](O)[C@@H](N)[C@H]2O)C[C@@H]2O[C@@](O)(C[C@@H](O)[C@@H](O)CC[C@@H](O)C[C@@H](O)C[C@@H](O)CC(=O)O[C@H]1C)C[C@H](O)[C@H]2C(=O)O [Nystatin (Fungicidin)] | -1.18 | 0.602 | -0.171 | 0.709
CN1CCCCC1Cn1cc(C(=O)c2cc([N+](=O)[O-])ccc2I)c2ccccc21 (stereo not drawn) | -0.695 | -1.15 | -0.027 | -0.799
O=C(O[C@H]1C[C@H]2CC[C@@H](C1)[N+]21CCCC1)C(O)(c1ccccc1)c1ccccc1.[Cl-] [Trospium chloride] | -0.207 | -0.182 | 0.611 | -0.0377
CC(C)(C)[C@@]1(O)C[C@@H]2OC(=O)C[C@@]23C(=O)O[C@H]2OC(=O)[C@H](O)C213 (stereo partly drawn) [Bilobalide] | -0.0311 | 0.00519 | 0.375 | -0.229
CCCN1CCO[C@@H]2c3cc(O)ccc3OC[C@@H]21 | -0.855 | -0.422 | 0.028 | -0.735
C1=C2CCCN[C@H]2[C@@H]2C[C@H]1[C@H]1CCCCN1C2 [Aloperine] | -1.1 | -0.427 | -0.224 | 0.263
Cc1c(N)nc([C@H](CC(N)=O)NC[C@@H](N)C(N)=O)nc1C(=O)N[C@H](C(=O)N[C@@H](C)[C@H](O)[C@@H](C)C(=O)N[C@@H](C(=O)NCCc1nc(-c2nc(C(=O)NCCC[S+](C)C)cs2)cs1)[C@@H](C)O)C(O[C@H]1O[C@H](CO)[C@H](O)[C@@H](O)[C@H]1O[C@H]1O[C@H](CO)[C@@H](O)[C@H](OC(N)=O)[C@@H]1O)c1c[nH]cn1.O=S(=O)([O-])O (stereo partly drawn) [Bleomycin Sulfate] | 0.26 | 0.32 | -0.0954 | -0.0334
O=[N+]([O-])c1ccc([As](=O)(O)O)cc1 [Nitarsone] | -0.142 | -0.277 | -0.0762 | -0.935
O=C(O)c1nn(Cc2ccc(Cl)cc2Cl)c2ccccc12 [Lonidamine] | -0.305 | -1.27 | 0.335 | -0.684
CN1[C@@H]2CC[C@H]1C[C@@H](OC(=O)C(CO)c1ccccc1)C2.CN1[C@@H]2CC[C@H]1C[C@@H](OC(=O)C(CO)c1ccccc1)C2.O.O=S(=O)(O)O (stereo partly drawn) [Atropine] | 0.147 | -0.447 | 0.028 | -0.5
CCCCCCCCCCCC[N+](C)(C)CCOc1ccccc1.[Br-] [Domiphen Bromide] | -0.129 | -1.79 | -1.2 | -2.1
COc1ccc(C(CN(C)C)C2(O)CCCCC2)cc1.Cl (stereo not drawn) [Venlafaxine] | 0.822 | -0.601 | -0.318 | -1.4
CC(C)NCC(O)c1ccccc1Cl.Cl (stereo not drawn) [Clorprenaline HCl] | 0.146 | 0.216 | -0.435 | 0.234
CC(=O)OC1CN2CCC1CC2.Cl (stereo not drawn) [Aceclidine HCl] | -0.018 | -0.557 | -0.0507 | -0.347
CN(C)CCc1ccc(O)cc1 [Hordenine] | -0.117 | 0.0394 | 0.146 | -0.233
C[N+](C)(C)CCCCCCCCCC[N+](C)(C)C.[Br-].[Br-] [Decamethonium Bromide] | -0.273 | -0.468 | 0.0516 | -0.647
CNCC(O)c1ccc(O)cc1.Cl (stereo not drawn) [Synephrine HCl] | -0.399 | 0.271 | -0.498 | 0.0889
O=c1cccc2n1C[C@@H]1CNC[C@H]2C1 [Cytisine] | 0.504 | 0.484 | 0.0956 | 0.551
Br.CN1[C@@H]2C[C@@H](OC(=O)[C@H](CO)c3ccccc3)C[C@H]1[C@@H]1O[C@@H]12 [Scopolamine HBr] | 0.0228 | -1.19 | -0.692 | -0.642
C[C@]12CC[C@@H]3[C@@H](CC[C@@]45O[C@@H]4C(O)=C(C#N)C[C@]35C)[C@@H]1CC[C@H]2O [Trilostane] | -0.437 | -0.148 | -0.265 | -0.379
CN1CCc2cc3c(cc2C1O)OCO3 (stereo not drawn) [Hydrastinine HCl] | -0.446 | -0.139 | -0.154 | -0.188

Ordered by number of heavy atoms (falling): part of the list above.
SMILES | OMR-Perf [1] | Prob-Test [2] | Prob-Naive [3] | Prob-Train [4]
CN1CCCCC1Cn1cc(C(=O)c2cc([N+](=O)[O-])ccc2I)c2ccccc21 (stereo not drawn) | -0.695 | -1.15 | -0.027 | -0.799
CCCN1CCO[C@@H]2c3cc(O)ccc3OC[C@@H]21 | -0.855 | -0.422 | 0.028 | -0.735
CN(C)Cc1c[nH]c2ccccc12 [Gramine] | -0.105 | 0.138 | -0.0225 | 0.00647

(cont.)

SMILES | OMR-Perf [1] | Prob-Test [2] | Prob-Naive [3] | Prob-Train [4]
c1ccc2c(c1)Nc1ccccc1S2 [Phenothiazine] | -0.603 | -0.692 | -4.98 | -2.43
Cc1ccccc1-n1c(Cn2ncc3c(N)ncnc32)nc2cccc(C)c2c1=O | -0.474 | -0.736 | 0.285 | -0.00159
Cl.NCC1(CC(=O)O)CCCCC1 [Gabapentin Hydrochloride] | -0.266 | -0.511 | -0.419 | -0.584
Br.COC(=O)C1=CCCN(C)C1 [Arecoline] | -0.499 | 0.484 | 0.374 | 0.814
O=c1[nH]c2ccccc2n1CCCN1CCC(n2c(=O)[nH]c3cc(Cl)ccc32)CC1 [Domperidone] | -0.677 | -0.0565 | -0.0304 | 0.15
CCNC(=O)C[C@@H]1N=C(c2ccc(Cl)cc2)c2cc(OC)ccc2-n2c(C)nnc21 | 0.108 | 0.228 | 0.245 | 0.0055
C[C@H]1CNCCc2ccc(Cl)cc21.Cl [Lorcaserin HCl] | -0.0115 | -0.516 | -0.395 | -0.888
Cl.NCCc1c[nH]c2ccc(O)cc12 [Serotonin HCl] | -0.0919 | -0.547 | 0.207 | 0.144
O=C(O[C@H]1C[N+]2(CCCOc3ccccc3)CCC1CC2)C(O)(c1cccs1)c1cccs1.[Br-] [Aclidinium Bromide] | -0.441 | -0.648 | 0.185 | -0.778
Cc1cc2c(C(C)C)c(O)c(O)c(C=O)c2c(O)c1-c1c(C)cc2c(C(C)C)c(O)c(O)c(C=O)c2c1O [Gossypol] | 0.251 | -0.745 | 0.773 | 0.161
C#C[C@@]1(O)CC[C@H]2[C@@H]3CCC4=CC(=O)CC[C@]4(C)[C@@H]3CC[C@@]21C [Ethisterone] | 0.448 | -0.0493 | 0.549 | -0.0773
O=[N+]([O-])c1ncc[nH]1 [Azomycin] | -0.55 | -0.436 | 0.285 | -0.554
Cl.Cn1c(CCCC(=O)O)nc2cc(N(CCCl)CCCl)ccc21 [Bendamustine HCl] | 0.209 | -0.349 | -0.459 | -0.323
CN1C(=O)COc2c(C(=O)NC3CN4CCC3CC4)cc(Cl)cc21.Cl (stereo not drawn) | 0.357 | -0.373 | 0.0551 | -0.173
C[C@]12C/C(=C\O)C(=O)C[C@@H]1CC[C@@H]1[C@H]2CC[C@@]2(C)[C@H]1CC[C@@]2(C)O [Oxymetholone] | -0.0714 | 0.452 | -1.06 | 0.0679
COc1cc2c(cc1OC)[C@@]13CCN4CC5=CCO[C@H]6CC(=O)N2[C@H]1[C@H]6[C@H]5C[C@H]43 [Brucine] | -0.0963 | 0.946 | 0.0283 | 0.63
C#C[C@@]1(O)C=C[C@H]2[C@@H]3CCC4=CC(=O)CC[C@@H]4[C@@H]3CC[C@@]21CC [Gestodene] | -0.156 | -0.922 | -0.393 | -1.31
O=C(O)CNC(=O)c1c(O)c2ccccc2n(Cc2ccccc2)c1=O | -0.306 | 0.153 | 0.146 | -0.376
O=c1[nH]c2ccc(Cl)cc2c(N[C@@H]2CN3CCC2CC3)c1-c1nc2ccccc2[nH]1 | -0.883 | 1.01 | -0.13 | -0.126
Cl.N[C@H]1C[C@@H]1c1ccccc1 [Tranylcypromine (2-PCPA) HCl] | 0.334 | -1.23 | 0.245 | -0.635
CC(=O)Nc1ccc(Cc2ccc(NC(C)=O)cc2)cc1 | -0.387 | -0.262 | 0.134 | -0.0425
CCC1(C)CC(=O)NC(=O)C1 [Bemegride] | -0.0161 | -0.13 | -0.45 | 0.152
COc1cc(OC)c(OC)cc1C=O [Asaraldehyde] | 0.0142 | 0.802 | 0.13 | 0.0521
CCNCC.O=S(=O)(O)c1cc(O)ccc1O [Ethamsylate] | 0.155 | -0.504 | -0.0384 | -0.496
COc1ccc(OC)c(C(O)C(C)N)c1.Cl (stereo not drawn) [Methoxamine HCl] | -0.499 | -0.0249 | -0.119 | -0.147
C=CCN1CC[C@]23c4c5ccc(O)c4O[C@H]2C(=O)CC[C@@]3(O)[C@H]1C5.Cl [Naloxone HCl] | -0.746 | -0.785 | 5.13e-16 | -1.16
